Experiment [1] concerns the target T1, FLAG-tagged rat FE65 (rat) (UniProt P46933).
T1 sequence: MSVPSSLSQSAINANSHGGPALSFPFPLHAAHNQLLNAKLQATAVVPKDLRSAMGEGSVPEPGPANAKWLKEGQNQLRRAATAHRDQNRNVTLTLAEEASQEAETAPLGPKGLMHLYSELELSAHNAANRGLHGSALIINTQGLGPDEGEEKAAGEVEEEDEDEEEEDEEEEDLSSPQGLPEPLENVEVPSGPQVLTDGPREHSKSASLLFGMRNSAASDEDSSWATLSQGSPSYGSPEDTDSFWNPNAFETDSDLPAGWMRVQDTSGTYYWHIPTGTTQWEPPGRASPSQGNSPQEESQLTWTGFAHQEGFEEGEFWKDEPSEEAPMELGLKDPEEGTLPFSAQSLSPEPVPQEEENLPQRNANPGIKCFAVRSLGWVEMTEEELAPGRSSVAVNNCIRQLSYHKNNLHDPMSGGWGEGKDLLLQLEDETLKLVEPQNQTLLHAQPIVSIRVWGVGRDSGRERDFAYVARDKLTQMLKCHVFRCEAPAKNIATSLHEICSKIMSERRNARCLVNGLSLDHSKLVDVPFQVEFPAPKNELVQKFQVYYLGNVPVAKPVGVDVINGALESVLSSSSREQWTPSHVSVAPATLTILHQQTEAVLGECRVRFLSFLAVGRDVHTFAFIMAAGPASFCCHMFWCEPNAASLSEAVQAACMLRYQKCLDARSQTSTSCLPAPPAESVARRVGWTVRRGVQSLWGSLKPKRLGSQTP
The experiment can be described thus: co-IP; data not shown; V5-SET and FLAG-FE65 co-transfected into H4 cells; IP with anti-FLAG agarose (anti-myc agarose as negative control), blot with anti-V5.

The chains behind the UniProt entries cited, without tags or fusion partners.
UniProt Q01105: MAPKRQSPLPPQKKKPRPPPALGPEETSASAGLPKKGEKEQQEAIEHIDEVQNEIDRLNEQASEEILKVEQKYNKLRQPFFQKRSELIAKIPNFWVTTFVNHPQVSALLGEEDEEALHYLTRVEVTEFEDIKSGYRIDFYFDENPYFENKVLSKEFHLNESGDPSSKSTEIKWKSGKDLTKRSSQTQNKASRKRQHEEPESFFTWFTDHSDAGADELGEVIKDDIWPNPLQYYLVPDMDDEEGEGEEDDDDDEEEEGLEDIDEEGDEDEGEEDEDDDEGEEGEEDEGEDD
UniProt Q13547: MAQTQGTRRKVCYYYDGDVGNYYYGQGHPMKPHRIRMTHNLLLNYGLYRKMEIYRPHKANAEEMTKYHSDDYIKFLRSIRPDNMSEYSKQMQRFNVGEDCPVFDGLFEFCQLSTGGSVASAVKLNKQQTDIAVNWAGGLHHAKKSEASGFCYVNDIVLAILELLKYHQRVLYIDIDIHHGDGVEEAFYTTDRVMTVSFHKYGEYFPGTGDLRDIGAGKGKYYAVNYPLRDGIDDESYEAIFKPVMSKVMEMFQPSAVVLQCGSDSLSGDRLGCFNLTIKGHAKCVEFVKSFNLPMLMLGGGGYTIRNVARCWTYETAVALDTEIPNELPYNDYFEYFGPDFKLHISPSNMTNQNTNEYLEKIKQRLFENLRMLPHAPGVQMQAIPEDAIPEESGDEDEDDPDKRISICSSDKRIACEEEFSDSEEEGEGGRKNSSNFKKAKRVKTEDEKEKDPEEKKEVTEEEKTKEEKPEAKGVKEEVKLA
UniProt Q92769: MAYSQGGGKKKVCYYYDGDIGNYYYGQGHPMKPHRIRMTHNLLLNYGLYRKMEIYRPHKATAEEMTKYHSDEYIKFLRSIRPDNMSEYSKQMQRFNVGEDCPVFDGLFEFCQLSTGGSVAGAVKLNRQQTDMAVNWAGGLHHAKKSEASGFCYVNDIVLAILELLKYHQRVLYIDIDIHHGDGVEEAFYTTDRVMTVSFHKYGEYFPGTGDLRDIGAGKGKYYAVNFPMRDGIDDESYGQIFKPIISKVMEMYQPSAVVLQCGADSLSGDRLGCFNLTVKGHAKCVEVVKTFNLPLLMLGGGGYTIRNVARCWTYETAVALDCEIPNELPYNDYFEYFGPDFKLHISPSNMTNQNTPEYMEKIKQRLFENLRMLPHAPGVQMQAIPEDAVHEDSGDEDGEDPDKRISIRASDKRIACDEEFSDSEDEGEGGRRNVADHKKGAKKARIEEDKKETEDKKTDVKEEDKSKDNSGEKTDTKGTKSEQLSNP

Experiment [2] concerns the target T2, myc-tagged full-length human Teashirt3 (human) (UniProt Q63HK5).
T2 sequence: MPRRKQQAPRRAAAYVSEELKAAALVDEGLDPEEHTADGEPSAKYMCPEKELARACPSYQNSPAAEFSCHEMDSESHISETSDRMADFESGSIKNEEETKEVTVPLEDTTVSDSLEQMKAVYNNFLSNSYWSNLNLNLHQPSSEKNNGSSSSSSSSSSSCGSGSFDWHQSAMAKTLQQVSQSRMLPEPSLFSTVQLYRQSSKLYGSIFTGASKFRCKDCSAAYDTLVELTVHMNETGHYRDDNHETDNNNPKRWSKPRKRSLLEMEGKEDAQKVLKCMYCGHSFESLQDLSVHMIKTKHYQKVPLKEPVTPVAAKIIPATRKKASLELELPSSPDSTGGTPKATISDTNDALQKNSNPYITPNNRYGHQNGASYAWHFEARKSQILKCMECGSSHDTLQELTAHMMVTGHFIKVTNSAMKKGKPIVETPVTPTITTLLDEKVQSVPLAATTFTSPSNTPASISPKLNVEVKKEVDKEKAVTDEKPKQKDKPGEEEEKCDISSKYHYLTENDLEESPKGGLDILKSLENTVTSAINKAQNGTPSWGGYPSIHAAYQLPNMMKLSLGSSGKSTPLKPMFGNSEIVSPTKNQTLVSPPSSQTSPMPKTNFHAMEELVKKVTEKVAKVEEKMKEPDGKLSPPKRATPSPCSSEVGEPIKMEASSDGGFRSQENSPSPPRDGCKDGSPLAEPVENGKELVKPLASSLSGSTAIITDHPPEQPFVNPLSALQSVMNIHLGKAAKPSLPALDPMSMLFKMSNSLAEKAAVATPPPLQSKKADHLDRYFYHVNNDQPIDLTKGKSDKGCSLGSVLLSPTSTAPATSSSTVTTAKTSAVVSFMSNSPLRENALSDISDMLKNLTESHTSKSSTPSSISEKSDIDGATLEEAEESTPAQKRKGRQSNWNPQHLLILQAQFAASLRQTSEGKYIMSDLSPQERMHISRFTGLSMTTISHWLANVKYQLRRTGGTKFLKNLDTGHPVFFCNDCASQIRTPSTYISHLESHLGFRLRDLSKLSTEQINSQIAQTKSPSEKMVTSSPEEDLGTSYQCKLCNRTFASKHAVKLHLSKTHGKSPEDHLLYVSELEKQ
The experiment can be described thus: co-IP; H4 cells transfected with myc-tagged Teashirt3 constructs; IP with 9E10 anti-myc and protein G agarose (PBS, 0.5% Triton X-100); blots with anti-HDAC1, HDAC2, HDAC3 or HDAC4 antibodies for endogenous HDACs.

No constants are given. Whether binding was seen depends on the method and setting. In cells and extracts the contact can be indirect. Some binding calls cover weakened binding; strength is not graded here. Sequences can lack the tags named with a protein.

As for “V5-tagged SET (from UniProt Q01105 1-290)”, the binding entry in experiment [1] was “binds”. In the case of “endogenous HDAC1 of H4 cells (from UniProt Q13547 1-482) (enzyme)”, the binding entry in experiment [2] is on record as “binds”. Turning to “endogenous HDAC2 of H4 cells (from UniProt Q92769 1-488) (enzyme)”, in experiment [2], the binding result is on record as “binds”.

Values taken from PMC2660419.
